{"source": "PubChem BioAssay AID602196 (INSERM, 2012)", "assay": "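Genes whose knock-down alters cisplatin killing of lung cancer cells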", "cells": "human A549 lung cancer cells", "reagent": "siRNA pair against human genes", "duration": "48 h transfection before cisplatin; time from cisplatin to read-out not stated", "conditions": "cisplatin at a dose killing half of control-siRNA cells; exact dose and duration not given", "measured": "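Cisplatin cell death as a shift from the 50% death seen with control siRNA; siRNAs toxic or growth-blocking alone scored 0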", "scale": "two-siRNA summed score (-2 to +2): higher = both siRNAs protect from cisplatin killing; -2 means both sensitise", "hit rule": "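siRNAs harmful alone (LDH or WST-1) get 0; others get +1 for less and -1 for more cisplatin killing; genes are active when the two siRNAs give the same sign, summing to ±2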", "meaning of the calls": "active = both siRNAs shift cisplatin killing the same way; inactive = no consistent shift, or siRNA harmful alone", "note": "This is an unselected part of about 23,000 reagents. 455 of all reagents (2%) count as active. 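Active includes both protection and sensitisation; some change values fall well beyond the stated -50 to +50 range.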 Reagents against one gene are numbered here. Further read-outs or replicates are left out here. Not stated in the record: the amount of reagent."}
{"Gene": "RBM14", "reagent": 1, "two-siRNA summed score (-2 to +2)": -1, "activity call": "inactive"}
{"Gene": "RBM14", "reagent": 2, "two-siRNA summed score (-2 to +2)": 0, "activity call": "inactive"}
{"Gene": "NR2E3", "reagent": 1, "two-siRNA summed score (-2 to +2)": 0, "activity call": "inactive"}
{"Gene": "KLC2", "reagent": 1, "two-siRNA summed score (-2 to +2)": 0, "activity call": "inactive"}
{"Gene": "CGNL1", "reagent": 1, "two-siRNA summed score (-2 to +2)": 0, "activity call": "inactive"}
{"Gene": "PRDX4", "reagent": 1, "two-siRNA summed score (-2 to +2)": -1, "activity call": "inactive"}
{"Gene": "TRIM61", "reagent": 1, "two-siRNA summed score (-2 to +2)": -1, "activity call": "inactive"}
{"Gene": "MVB12A", "reagent": 1, "two-siRNA summed score (-2 to +2)": 1, "activity call": "inactive"}
{"Gene": "GPR21", "reagent": 1, "two-siRNA summed score (-2 to +2)": 1, "activity call": "inactive"}
{"Gene": "SOS2", "reagent": 1, "two-siRNA summed score (-2 to +2)": 0, "activity call": "inactive"}
{"Gene": "LINC02213", "reagent": 1, "two-siRNA summed score (-2 to +2)": 1, "activity call": "inactive"}
{"Gene": "LY6S-AS1", "reagent": 1, "two-siRNA summed score (-2 to +2)": 1, "activity call": "inactive"}
{"Gene": "MTDH", "reagent": 1, "two-siRNA summed score (-2 to +2)": 0, "activity call": "inactive"}
{"Gene": "DDX42", "reagent": 1, "two-siRNA summed score (-2 to +2)": 0, "activity call": "inactive"}
{"Gene": "CR2", "reagent": 1, "two-siRNA summed score (-2 to +2)": 1, "activity call": "inactive"}
{"Gene": "PXMP2", "reagent": 1, "two-siRNA summed score (-2 to +2)": 0, "activity call": "inactive"}
{"Gene": "LOC401410 (retired record)", "reagent": 1, "two-siRNA summed score (-2 to +2)": 0, "activity call": "inactive"}
{"Gene": "AP3M1", "reagent": 1, "two-siRNA summed score (-2 to +2)": 0, "activity call": "inactive"}
{"Gene": "TRIM36", "reagent": 1, "two-siRNA summed score (-2 to +2)": 0, "activity call": "inactive"}
{"Gene": "H3C6", "reagent": 1, "two-siRNA summed score (-2 to +2)": 0, "activity call": "inactive"}
{"Gene": "PIGO", "reagent": 1, "two-siRNA summed score (-2 to +2)": 0, "activity call": "inactive"}
{"Gene": "ZNF425", "reagent": 1, "two-siRNA summed score (-2 to +2)": 0, "activity call": "inactive"}
{"Gene": "RBM6", "reagent": 1, "two-siRNA summed score (-2 to +2)": 1, "activity call": "inactive"}
{"Gene": "FRMD4B", "reagent": 1, "two-siRNA summed score (-2 to +2)": 1, "activity call": "inactive"}
{"Gene": "ZNF169", "reagent": 1, "two-siRNA summed score (-2 to +2)": 1, "activity call": "inactive"}
{"Gene": "TENM3-AS1", "reagent": 1, "two-siRNA summed score (-2 to +2)": 0, "activity call": "inactive"}
{"Gene": "LOC442099", "reagent": 1, "two-siRNA summed score (-2 to +2)": 0, "activity call": "inactive"}
{"Gene": "MINK1", "reagent": 1, "two-siRNA summed score (-2 to +2)": 1, "activity call": "inactive"}
{"Gene": "TXLNA", "reagent": 1, "two-siRNA summed score (-2 to +2)": 1, "activity call": "inactive"}
{"Gene": "ZNF627", "reagent": 1, "two-siRNA summed score (-2 to +2)": 1, "activity call": "inactive"}
{"Gene": "FLJ39609", "reagent": 1, "two-siRNA summed score (-2 to +2)": 1, "activity call": "inactive"}

Quoted from above (5 entries):
{"Gene": "FRMD4B", "reagent": 1, "two-siRNA summed score (-2 to +2)": 1, "activity call": "inactive"}
{"Gene": "ZNF169", "reagent": 1, "two-siRNA summed score (-2 to +2)": 1, "activity call": "inactive"}
{"Gene": "TENM3-AS1", "reagent": 1, "two-siRNA summed score (-2 to +2)": 0, "activity call": "inactive"}
{"Gene": "LOC442099", "reagent": 1, "two-siRNA summed score (-2 to +2)": 0, "activity call": "inactive"}
{"Gene": "MINK1", "reagent": 1, "two-siRNA summed score (-2 to +2)": 1, "activity call": "inactive"}
